Assay results published in patent publication US20220096654A1, “PYRROLOBENZODIAZEPINE-ANTIBODY CONJUGATES AND USES THEREOF” (ADC THERAPEUTICS SA, priority 2020, published 2022).
Some results were stated once for a whole list of compounds, not compound by compound.

B1: YTH24.5-B1: rat IgG2b anti-CD45 antibody YTH24.5 conjugated to cleavable PBD drug-linker B1 (drawing 43) (conjugate)
heavy: QVNLLQSGAALVKPGASVKLSCKASSYTFTDYYIHWVKQSHGKTLEWIGYINPKSGFTNYNEKFRRKATLTVDKSTNTAYMDISRLTSEDSATYYCTRRTGVIPMDAWGQGASVTVSSAQTTAPSVYPLAPGCGDTTSSTVTLGCLVKGYFPEPVTVTWNSGALSSDVHTFPAVLQSGLYTLTSSVTSSTWPSQTVTCNVAHPASSTKVDKKVERRNGGIGHKCPTCPTCHKCPVPELLGGPSVFIFPPKPKDILLISQNAKVTCVVVDVSEEEPDVQFSWFVNNVEVHTAQTQPREEQYNSTFRVVSALPIQHQDWMSGKEFKCKVNNKALPSPIEKTISKPKGLVRKPQVYVMGPPTEQLTEQTVSLTCLTSGFLPNDIGVEWTSNGHIEKNYKNTEPVMDSDGSFFMYSKLNVERSRWDSRAPFVCSVVHEGLHNHHVEKSISRPPGK
light: DVVMTQTPVSLSVSLGGQVSISCRSSQSFVSSDGNTYLNWYLQKPGQSPQLLIYKVSNRLSGVPDRFSGSGSGTDFTLKISRVEHDDLGVYYCGQASKIPLTFGSGTKLEIKRADAAPTVSIFPPSMEQLTSGGATVVCFVNNFYPRDISVKWKIDGSEQRDGVLDSVTDQDSKDSTYSMSSTLSLTKVEYERHNLYTCEVVHKTSSSPVVKSFNRNEC
B2: YTH54.12-B1: rat IgG2b anti-CD45 antibody YTH54.12 conjugated to cleavable PBD drug-linker B1 (drawing 43) (conjugate)
heavy: EVQLVESGGGLVQPGGSMKLSCAASGFTFSDYYMAWVRQAPKKGLEWVASMSFAGSSTYYGDSVKGRFTISRDNAKTTLYLQMNSLRSEDTATYYCARMYTTDYYLYWYFDFWGPGTMVTVSSAQTTAPSVYPLAPGCGDTTSSTVTLGCLVKGYFPEPVTVTWNSGALSSDVHTFPAVLQSGLYTLTSSVTSSTWPSQTVTCNVAHPASSTKVDKKVERRNGGIGHKCPTCPTCHKCPVPELLGGPSVFIFPPKPKDILLISQNAKVTCVVVDVSEEEPDVQFSWFVNNVEVHTAQTQPREEQYNSTFRVVSALPIQHQDWMSGKEFKCKVNNKALPSPIEKTISKPKGLVRKPQVYVMGPPTEQLTEQTVSLTCLTSGFLPNDIGVEWTSNGHIEKNYKNTEPVMDSDGSFFMYSKLNVERSRWDSRAPFVCSVVHEGLHNHHVEKSISRPPGK
light: DVQMTQSPSYLAASPGESVSISCKASKSISNYLAWYQQKPGEANKILIYSGSTLQSGTPSRFSGSGSGTDFSLTIRNLEPEDFAVYYCQQYDEKPLTFGSGTKLEIKRADAAPTVSIFPPSMEQLTSGGATVVCFVNNFYPRDISVKWKIDGSEQRDGVLDSVTDQDSKDSTYSMSSTLSLTKVEYERHNLYTCEVVHKTSSSPVVKSFNRNEC

System: human CD45+ cells
Test: Engraftment of a second transplant of GFP+ autologous CD34+ cells in humanised NSG mice after conditioning
Assay type: in vivo
Conditions: 1 mg/kg (combination 0.5 mg/kg each); 9 weeks after GFP+ cell transplant
Protocol: Adult female NSG mice were sublethally irradiated with 2.5 Gy on the day before transplantation (day −1). Cryopreserved purified CD34+ cells from mobilized peripheral blood from a normal donor were thawed and 0.5×10^6 cells in PBS were injected intravenously into the tail vein of mice (day 0). Human engraftment (human CD45+ cells) in the blood of mice was assessed at week 8. Mice were assigned to treatment cohorts so that the median human CD45+ engraftment in the blood for each cohort was as similar as possible. Mice were injected with 1 mg/kg Mab or ADC or a combination of YTH MAbs (0.5 mg/kg each) or YTH ADCs (0.5 mg/kg each) intravenously via the tail vein. Mice were subsequently transplanted with lentivirally transduced green fluorescent protein (GFP) autologous CD34+ cells (Week 10). A separate cohort of sublethally irradiated (non-humanized) NSG were injected with the same batch of GFP transduced cells served as a positive control for GFP+ human cell engraftment. Nine weeks after GFP+ cell transplant, mice were culled and blood, spleen and bone marrow taken for analysis.

Molecule	GFP+ human CD45+ cells of all human CD45+ cells in the bone marrow	GFP+ of total human HSCs, human MLPs and human MPPs [%]
B1	up to 80%	> 80
B2	up to 80%	> 80
